No constants are given. Whether binding was seen depends on the method and setting. Binding calls can cover weak binding; strength is not graded here.
Biological target: T1, mouse Zcytor19 (mouse) (UniProt Q8CGK5)
T1 sequence (looked up): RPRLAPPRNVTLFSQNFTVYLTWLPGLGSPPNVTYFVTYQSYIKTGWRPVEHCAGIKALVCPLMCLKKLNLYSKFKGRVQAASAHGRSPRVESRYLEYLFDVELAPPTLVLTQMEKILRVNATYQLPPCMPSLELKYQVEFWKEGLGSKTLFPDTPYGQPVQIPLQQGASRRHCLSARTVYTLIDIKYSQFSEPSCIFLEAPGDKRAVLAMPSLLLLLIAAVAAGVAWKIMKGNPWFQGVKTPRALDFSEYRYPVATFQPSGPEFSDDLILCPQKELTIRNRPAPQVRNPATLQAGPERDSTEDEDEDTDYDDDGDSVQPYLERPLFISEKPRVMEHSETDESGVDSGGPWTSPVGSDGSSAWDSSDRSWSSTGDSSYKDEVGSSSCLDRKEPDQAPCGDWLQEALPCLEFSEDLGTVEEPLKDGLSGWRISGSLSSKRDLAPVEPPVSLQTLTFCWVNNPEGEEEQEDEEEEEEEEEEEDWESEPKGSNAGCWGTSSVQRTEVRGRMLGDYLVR
Assay: secretion trap (further experiments)

binding: binds
Substance: biotinylated zcyto21CEE (ligand)

From patent publication EP1942187B1
